These results are taken from PMC8139589.

Protein sequences, listed by entry. Tags and fused reporters are not part of them. Residues count along the entry.
UniProt P01137, 279-390: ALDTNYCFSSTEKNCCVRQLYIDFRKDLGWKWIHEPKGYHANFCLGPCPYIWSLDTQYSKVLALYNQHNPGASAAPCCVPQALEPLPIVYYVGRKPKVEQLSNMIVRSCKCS

Construct, isoform or probe ends are uncertain for at least one entry.

In the series the target is TGF-beta1 (human) (UniProt P01137). The series is described as follows: electrochemical aptasensor (SWV). As to conditions: serum, 0-150 pg/ml; phosphorothioate at positions marked *; 3' internal spacer C3; Serum as wound-exudate mimic; about 30 min incubation to equilibrium; aptamers immobilized at 10 uM in TE buffer, MCH passivation; commercial protein; label: 5' methylene blue, 3' C3 thiol; folded or branched DNA.

In the case of “CGCTCGGCTTCACGAGATTCGTGTCGTTGTGTCCTGTACCCGCCTTGACCAGTCACTCTAGAGCATCCGGACTG [TGF-beta1 aptamer]”, the binding result is reported as “binds”.
